This passage reports binding results from doi:10.1101/266171.

No constants are given. Whether binding was seen depends on the method and setting. A result given as binding can be weak or reduced; the word gives no strength. For some of these results: Tags and fused reporters may be left off the sequences shown. For some of these results: In cells and extracts the contact can be indirect.

Assay [1] addresses cYFP-Exo70B2 (Arabidopsis thaliana). The assay can be described thus: split reporter.
In assay [2] the target is MBP-Exo70B2 (Arabidopsis thaliana). Kind of assay: pull-down.
For assay [3], the target named is cYFP-Exo70B2-ΔAIM2 (Arabidopsis thaliana). Kind of assay: split reporter.
Assay [4] concerns the target cYFP-Exo70B2-ΔAIM1 (Arabidopsis thaliana). Kind of assay: split reporter.
Assay [5] has as its target GFP-Exo70B2 (Arabidopsis thaliana). Kind of assay: co-IP.

B1: nYFP-MPK11 (enzyme, UniProt Q9LMM5 1-369)
chain: MSIEKPFFGDDSNRGVSINGGRYVQYNVYGNLFEVSKKYVPPLRPIGRGASGIVCAAWNSETGEEVAIKKIGNAFGNIIDAKRTLREIKLLKHMDHDNVIAIIDIIRPPQPDNFNDVHIVYELMDTDLHHIIRSNQPLTDDHSRFFLYQLLRGLKYVHSANVLHRDLKPSNLLLNANCDLKIGDFGLARTKSETDFMTEYVVTRWYRAPELLLNCSEYTAAIDIWSVGCILGEIMTREPLFPGRDYVQQLRLITELIGSPDDSSLGFLRSDNARRYVRQLPQYPRQNFAARFPNMSVNAVDLLQKMLVFDPNRRITVDEALCHPYLAPLHEYNEEPVCVRPFHFDFEQPSLTEENIKELIYRESVKFNP
As for B1, the binding entry in assay [1] is listed as “binds”.

B2: His-ATG8f (protein, UniProt Q8VYK7 1-117)
chain: MAKSSFKQEHDLEKRRAEAARIREKYPDRIPVIVEKAEKSDIPTIDKKKYLVPADLTVGQFVYVIRKRIKLSAEKAIFIFVDNVLPPAGALMSSVYEEKKDDDGFLYVTYSGENTFG
As for B2, the binding result in assay [2] was “binds”.

B3: nYFP-ATG8f (protein, UniProt Q8VYK7 1-117)
chain: B2 chain
As to B3, the binding entry in assay [3], in assay [1] and in assay [4] was “binds” in each case.

B4: nYFP-MPK3 (enzyme, UniProt Q39023 1-370)
chain: MNTGGGQYTDFPAVETHGGQFISYDIFGSLFEITSKYRPPIIPIGRGAYGIVCSVLDTETNELVAMKKIANAFDNHMDAKRTLREIKLLRHLDHENIIAIRDVVPPPLRRQFSDVYISTELMDTDLHQIIRSNQSLSEEHCQYFLYQLLRGLKYIHSANIIHRDLKPSNLLLNANCDLKICDFGLARPTSENDFMTEYVVTRWYRAPELLLNSSDYTAAIDVWSVGCIFMELMNRKPLFPGKDHVHQMRLLTELLGTPTESDLGFTHNEDAKRYIRQLPNFPRQPLAKLFSHVNPMAIDLVDRMLTFDPNRRITVEQALNHQYLAKLHDPNDEPICQKPFSFEFEQQPLDEEQIKEMIYQEAIALNPTYG
As to B4, in assay [1], the binding result is on record as “binds”.

B5: endogenous MPK3 (enzyme, UniProt Q39023 1-370)
chain: B4 chain
For B5, the binding result in assay [5] was “binds”.
